# Laboratory results taken from PubChem BioAssay AID1347426 (Functional Genomics Laboratory (NCATS/FGL), 2020).
# About 1,400 (4.5%) of roughly 31,000 sequences were called active.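 The calls were made as follows: active = median seed-adjusted z-score above 1 or below -1; inactive = the rest.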 The list shows a part of the results.
# Test: Novel Modifiers of Survival Motor Neuron (SMN) Protein: Gene Identification via Genome-wide siRNA Screen;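 also: luminescence tracks full-length SMN protein made from the SMN2 reporter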
# Conditions: HEK293T SMN2-luciferase reporter, siRNA knockdown, 72 h; actives lie on both sides
# In short: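 HEK293T cells stably carrying an SMN2 promoter/splicing cassette–luciferase reporter were reverse-transfected with 1 pmol siRNA per well (druggable-genome library, 3 siRNAs per gene) and grown 72 h at 37 °C. Luminescence, normalized to negative-control siRNA and log10-transformed, was scored as MAD.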
row,Sequence,median seed-adjusted z-score
1,GAACCACAUUUAUUGGAUUTT against GPR82,inactive: -0.83
2,AGAUGUCCAGACCAAGAUATT against CREBL1,inactive: -0.348
3,AGAACACCUUUAGAAAUAATT against TWIST1,inactive: -0.159
4,CGGGCAUUCUUAUUAGUCATT against SLC2A2,inactive: -0.498
5,CCUCAUCCCUUAGACUGCATT against ZNF558,inactive: -0.393
6,GCGAGACGACGUUUCUGAATT against DBX1,inactive: 0.0137
7,GGAGCUACUUUGACUCACUTT against KCNK13,inactive: -0.0924
8,GGAUAACAGUGAGUCAAGATT against SUFU,inactive: -0.263
9,GGAGUAGGGUGUUUCGAGATT against MKNK1,inactive: 0.221
10,GCUACUUCAAGGACAGAUATT against NHLRC2,inactive: 0.548
11,GAAUGUAAGCGAUGUGGUATT against ZNF136,inactive: 0.229
12,GUAUAUAGAAGGUAUAGCATT against GSTA1,inactive: 0.27
13,GCAGACCUGUGACAUCGAATT against RGS14,inactive: 0.655
14,CCUUGAUGUUUCUCAGUUUTT against ZNF433,inactive: 0
15,GCAACGAACUUCUUAGGAATT against SERAC1,inactive: -0.0919
16,CCUGAACGGUUUUGAUGUATT against CDC20,inactive: 0.191
17,GAGCUAUGGUUACACGGUUTT against GABRQ,inactive: -0.54
18,UUACUUUCCUAGUAAGCAATT against GNA12,inactive: 0.598
19,GGGUUUGACCCACAGCAAATT against ATP1A3,inactive: 0.329
20,GGAUAUAGAGGAUACAGCATT against RFX5,inactive: 0.432
21,GGAUGAAGAUUGUGCGGGUTT against SGPL1,inactive: 0.139
22,CCAACAUUGUCACCUACAATT against NEK4,inactive: -0.076
23,GCUGUAGUCUAUUAUAUGATT against SLC1A3,inactive: -0.421
24,AGAUCUUCGCAAAUACUGUTT against KRT18,inactive: 0.558
25,GGCAGUUAGGUAUUCCAUATT against PCDHB5,inactive: 0
26,UGAACAUGCUCAAACCAGATT against GFRA3,inactive: -0.326
27,CCAUGACAGACGAAGAGAATT against AIP,inactive: 0.529

row,Sequence,median seed-adjusted z-score
1,CUGUCAUUCCUGAAAAGAATT against STAMBP,inactive: 0.511
2,GAAUAGCAACCACCAAAUATT against PDE11A,inactive: 0
3,GCACGUGCUAGAGUACAAUTT against IMP3,inactive: 0.0239
4,GGCAUUAACAAAUAUAGCATT against KPNA5,inactive: -0.174
5,ACUCAGUGGAGGUCACCAATT against EIF3F,inactive: -0.0214
6,AGAUCUUACAUGUCAUUCATT against KLF8,inactive: 0.0976
7,CCGUCCUUAUCUCAUCAAATT against HADHA,inactive: 0.47
8,CCACAGACUUGGUGCCUGATT against RAB43,inactive: -0.0845
9,CCUUUUACAUGUUCUAUUUTT against SIVA1,inactive: 0.0451
10,GCCUAAACAGUGACCGAUUTT against BDH1,inactive: -0.0253
11,GCACUCCUGUGCUUUAAAATT against XYLB,inactive: -0.414
12,GAAUAGAUCUUGAAGACUUTT against FGL2,inactive: 0
13,GCUAGAUACUGGAAACCUATT against DCN,inactive: 0.326
14,GCAAUCACAUUGCUCUGUATT against PIGL,inactive: 0.827
15,GAAGCUCUCUUGACUAUGATT against FKBP3,inactive: -0.102
16,AGACCGCUGUGAUCGAGGATT against NACC2,inactive: 0.144
17,GAAUCAUGCUUGUUGGUGATT against LEPREL1,inactive: 0.0654
18,GGCUGGGUUCAUUACAUGATT against CKS2,inactive: 0.0907
19,GCAUGCUGUUAGCCGAUAATT against TOMM70A,inactive: 0.0717
20,GACCAGUAAUGAUUGUGGUTT against EPHA6,inactive: 0.0445
21,CCCUGUGGAUCUACUCGAATT against RTN4RL1,inactive: -0.537
22,CCCUAUGAACAAUACGCAATT against DNAJC6,inactive: -0.265
23,GCCUGAGAAUAAUAUGUCUTT against EXO1,inactive: 0.547
24,GGCAUGAAUUUGAACUGUATT against CA8,inactive: 0.172
25,GCGCUUUGGAGAUCCGAGATT against KLC3,inactive: -0.156
26,GUAUGUCACCUAUCACUGUTT against SLC25A38,inactive: 0
27,CGACUCCUUCGACCACAAATT against PVALB,inactive: 0.11

# Two entries from above, with bars between the fields.
row | Sequence | median seed-adjusted z-score
20 | GACCAGUAAUGAUUGUGGUTT against EPHA6 | inactive: 0.0445
25 | GCGCUUUGGAGAUCCGAGATT against KLC3 | inactive: -0.156
